In the supplement of paper PMC3334620:
Over roughly 33,000 sequences, “E-score (-0.5 to 0.5)” has its median near -0.0034; the highest 2% begin near 0.25. Some of the results follow.

target: T1, Yap3 (UniProt P38749); experiment: PBM E-score (8-mer binding enrichment) (E-score (-0.5 to 0.5)); higher = stronger / more preferred TF binding; conditions: protein concentration: 100 nM; construct: GST-full length
T1 sequence: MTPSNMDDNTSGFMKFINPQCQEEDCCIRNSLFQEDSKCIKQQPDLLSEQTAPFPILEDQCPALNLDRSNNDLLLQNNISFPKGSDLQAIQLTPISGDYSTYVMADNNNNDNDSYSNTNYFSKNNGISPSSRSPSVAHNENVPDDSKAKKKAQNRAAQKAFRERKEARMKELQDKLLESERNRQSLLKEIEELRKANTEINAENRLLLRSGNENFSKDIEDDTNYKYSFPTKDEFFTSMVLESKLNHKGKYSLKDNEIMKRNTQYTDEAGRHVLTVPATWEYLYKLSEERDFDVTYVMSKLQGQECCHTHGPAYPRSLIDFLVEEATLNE
How it was run: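 Masliner-normalised scans of fluorescent anti-GST signal were the basis for scoring. That signal came from GST-tagged yeast transcription factors applied at about 100-200 nM to double-stranded universal all-10-mer Agilent arrays on fresh or once-stripped slides. Each ungapped eight-base word, pooled with its reverse complement, received an E-score from the Universal PBM Analysis Suite.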

Sequence | PBM E-score
AGATCGTC | -0.134
AGCCGTGG | -0.196
CTCTGGTA | 0.0338
ACAAGGTG | 0.0744
GACGAGGA | -0.0396
ATTTACGG | 0.234
GATACAAC | 0.114
CTTGCATA | 0.0986
AGCAGATA | -0.0697
ATTTTGAA | 0.132
GACTCAAC | -0.0307
CACCGTCG | -0.227
TGCATGAA | 0.14
CCACTAAC | 0.00404
CCATTTAC | 0.108
ATTTAGCC | 0.0798
ACTGAGGA | -0.158
AAGGGATT | 0.0279
ACCCAGCG | -0.152
ACCACTAT | 0.14
AAAGAGGT | 0.0767
GTCCAGAA | 0.00245
GAGATGGC | 0.133
AAAATGGC | 0.142
GTCCCTGA | -0.193

Sequence | PBM E-score
AGGTGGGG | -0.0201
CGTCACCC | -0.098
CATAGCGA | -0.056
CACTTTCG | 0.126
CACAGTTC | 0.0371
CTAGGAAA | 0.0848
TCTTACCA | -0.177
TGCATTAA | 0.172
CAAGTAGA | -0.0688
AGGGACGA | -0.128
CCGGCAAC | -0.163
GCGGCGGA | -0.0733
CCGTCCCG | -0.302
ATGACTGG | -0.204
GAGCTATC | -0.163
CCTTATGC | 0.0994
AGTCGAGG | -0.0873
TAATAGAA | 0.257
CCTTGGGA | -0.218
ACTTACCA | 0.0639
CGGGCTAA | -0.145
ACCCCGAC | -0.215
AGCCTGGA | -0.0679
AGGGCTAG | -0.178
ACTATCCT | 0.0365

Quoted from above (seven entries):
Sequence | PBM E-score
AGCCGTGG | -0.196
CTCTGGTA | 0.0338
ACAAGGTG | 0.0744
GACGAGGA | -0.0396
ATTTACGG | 0.234
GATACAAC | 0.114
CTTGCATA | 0.0986

(further entries)

Sequence | PBM E-score
AATCCCTA | 0.0362
AAAGTCCA | -0.0709
GAACGAAC | 0.059
GTAGACTA | -0.214
ATATAGAA | 0.227
CTCAACTA | 0.0192
AGACAGAC | 0.197
AGGGTCAG | -0.376
GCCTCAAC | -0.0901
TAATGCCA | 0.114
ACTTCCTG | 0.0919
CGATGCAG | -0.124
GAATCAAA | 0.0372
ATACTTAC | 0.0503
TCTATCCA | 0.0392
TAGACACA | -0.0965
AGTTGTCA | 0.122
ACTTATCA | 0.0773
ATAAGGGG | -0.00492
AGGTGTTC | 0.0558
CCTACCGC | -0.241
AGCTATTG | -0.0447
CAGGGGGG | -0.5
GCGATATA | 0.155
AAGAAGAA | 0.127

Sequence | PBM E-score
CAGAGGGA | -0.221
AGTCGTTG | -0.13
ATACGCGC | -0.0134
CGGAACAC | 0.0384
ATGTCGCA | 0.149
CCACGCTA | -0.104
CAGTGTCA | -0.0211
TACATAGA | 0.134
AGCCTCCG | -0.189
CTCTACGA | -0.0546
GCAACCGC | -0.0795
ATGGAAAG | 0.136
ACGCAAGA | 0.124
AAGTCATA | 0.111
GATACTAA | 0.112
GATTGGAA | 0.0179
AACCGGCG | 0.101
AGAGGGGA | -0.262
GTCTCACA | 0.107
CCGTTTCA | 0.0876
ACAGGTTG | 0.0356
AACTTTGA | 0.0683
ACCCGTCG | -0.251
AGGAAAGA | 0.0841
AGCACTCG | -0.198

Sequence | PBM E-score
CGCATCTC | -0.0873
AGTCCTGG | -0.289
CCATCCTC | -0.158
CAAAGATG | 0.0268
TCCTCGCA | -0.169
CGCAGAAC | 0.102
CTGCTGCA | -0.0208
CATTTCGG | -0.0177
GACCCATC | -0.284
GAAACACA | 0.102
CGCGGAAA | 0.0224
CAGCGACA | -0.147
ACGGATAA | 0.189
CCACTTCC | 0.0421
ATCAAGAC | -0.00507
AGTTTGAC | 0.105
CCCTGTAA | 0.0624
CTAGTTGA | 0.209
CCTCGTCA | 0.19
ACTCAGTG | -0.231
AATTAGAG | 0.145
AAAAAGCT | -0.0767
CTCACTAC | 0.0454
ATATATGG | 0.259
ACCATATC | 0.0587

Sequence | PBM E-score
AGGTTAAA | 0.0393
ACACAGAC | -0.00753
CGAGGGCG | -0.279
AGTACATA | 0.0785
GCAGTTCC | -0.195
ATTCTCAA | 0.224
CAGCTTGA | 0.0312
AGTCTAAG | 0.127
CGCTCCCC | -0.385
TCCTCAAA | -0.0561
AAATGCTA | 0.0794
AACGGGCA | -0.0363
AGAATATA | 0.14
AATGCATC | 0.0492
GGCCGACC | -0.217
TATGCAAA | -0.0403
AGGGTAAT | 0.0724
ACGATTCA | -0.12
CTTACGCA | 0.172
AATACGTC | 0.188
CACTGGCA | -0.0333
CGGAGGCC | -0.345
CTATTGAA | 0.0827
CCAGCTCG | -0.0962
TCATACAA | 0.246

Sequence | PBM E-score
ATATTCTG | 0.164
ACTTGTCC | 0.0688
ATTAGCGA | 0.107
ATTACATC | 0.154
CTAAGGTA | 0.0717
AGACTACA | 0.00993
AATCGTCT | 0.00963
CAGGTTCG | -0.102
ACGCTTAG | 0.04
AGGCGTCA | -0.105
AGTGTATG | 0.0576
CTAAGGAC | 0.0225
TTAAGTAA | 0.202
GACAAAAC | 0.179
ATTTATGC | 0.0664
CGGGGACC | -0.178
AAGCATTC | 0.148
ATTCCGAG | 0.227
AGCCGCAG | -0.245
CGTAATCC | 0.285
GAGAGACA | -0.12
ACTGTACC | -0.0379
